Measurements as given in PubChem BioAssay AID540275 (National Center for Advancing Translational Sciences (NCATS), 2011).
Screen size: about 320,000 compounds; about 620 (0.19%) were called active. Inconclusive means that the source gave no clear call. Such entries were picked first, then a sample of the others. Rule as the data show it: active = activation above about 80%; inconclusive = between about 30% and that limit; inactive = weaker than that.

Chains of the proteins cited; added tags and fusions are not shown.
UniProt Q8NER1, whole entry, looked up: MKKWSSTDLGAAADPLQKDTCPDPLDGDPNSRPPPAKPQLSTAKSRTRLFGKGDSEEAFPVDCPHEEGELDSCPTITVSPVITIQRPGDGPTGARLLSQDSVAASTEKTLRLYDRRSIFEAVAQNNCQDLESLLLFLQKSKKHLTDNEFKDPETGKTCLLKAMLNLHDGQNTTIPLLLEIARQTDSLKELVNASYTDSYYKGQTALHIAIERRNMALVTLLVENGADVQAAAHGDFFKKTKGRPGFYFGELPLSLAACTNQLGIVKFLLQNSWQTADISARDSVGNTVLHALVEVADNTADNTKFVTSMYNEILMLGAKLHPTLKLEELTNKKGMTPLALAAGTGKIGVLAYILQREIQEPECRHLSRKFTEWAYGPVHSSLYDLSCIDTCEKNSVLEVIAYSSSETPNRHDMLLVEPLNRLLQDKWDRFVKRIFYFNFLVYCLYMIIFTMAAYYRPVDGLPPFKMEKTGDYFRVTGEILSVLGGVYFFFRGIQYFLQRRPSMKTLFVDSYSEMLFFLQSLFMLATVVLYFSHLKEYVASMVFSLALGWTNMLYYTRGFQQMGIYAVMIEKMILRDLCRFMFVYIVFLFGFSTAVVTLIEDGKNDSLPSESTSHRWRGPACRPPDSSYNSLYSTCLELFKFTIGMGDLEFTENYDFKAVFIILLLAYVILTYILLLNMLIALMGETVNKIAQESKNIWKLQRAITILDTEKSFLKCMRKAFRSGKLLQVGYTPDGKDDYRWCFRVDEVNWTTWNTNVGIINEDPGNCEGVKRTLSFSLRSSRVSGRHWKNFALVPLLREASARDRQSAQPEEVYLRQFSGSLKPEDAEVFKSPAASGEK

The molecules below were run against Transient receptor potential cation channel subfamily V member 1 (Homo sapiens) (UniProt Q8NER1) (assay: HTS Assay for Compounds that Act as Agonists of the Vanilloid Receptor 1). Conditions: TRPV1-expressing cells, Fluo-8 calcium influx, agonist mode; at 8.33 µM, hits give high values.
Summary of the method: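 Fluo-8 calcium influx in TRPV1-expressing cells, kinetic read (ex 480/em 520 nm). Compound added and read 3 min for agonist activity, followed by capsaicin at EC20 final and 2 min further read for enhancement.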
For activation in this document: 0% is about no effect.

| Compound | activation |
| --- | --- |
| CC(=O)Nc1cccc(Oc2cc(C#N)c(C#N)cc2N2CCCCCC2)c1 | inconclusive: 51.1% |
| Cc1cc(/C=C(\C#N)C(=O)NCc2cccs2)c(C)n1-c1ccccc1F | inconclusive: 54% |
| Cc1ccc(C)c(N2CCN(c3nnnn3-c3ccccc3)CC2)c1 | inconclusive: 33.7% |
| C1=C(CCNc2nnnn2-c2ccccc2)CCCC1 | inconclusive: 37.8% |
| CCOC(=O)c1ccc(NC(=S)Nc2cccc(C)n2)cc1 | inactive: 0.376% |
| Cc1ccc(NC(=O)CCN2CCN(C/C=C/c3ccccc3)CC2)cc1 | inactive: -0.227% |
| O=C(COc1ccc2c(c1)CCC2)N1CCN(c2cccc(C(F)(F)F)c2)CC1 | inconclusive: 31.4% |
| COc1ccc(CC(=O)NC(C)CCc2ccccc2)cc1 (stereo unspecified) | inconclusive: 53.5% |
| CC1Cc2ccccc2N1C(=O)CCNS(=O)(=O)c1ccc2c(c1)CCC(=O)N2 (stereo unspecified) | inconclusive: 41.6% |
| COc1ccc2nc(NC(=O)c3ccc(-n4nc(C)cc4C)cc3)sc2c1 | inactive: -3.68% |
| CC(C)(C)OC(=O)NNc1c2ccccc2nc2ccccc12 | inconclusive: 31.5% |
| CCOc1ccc(C(C)NC(=O)c2ccccc2OCc2c(C)noc2C)cc1OCC (stereo unspecified) | inconclusive: 45.7% |
| Cc1cccc(NC(=S)NC2CCSc3ccccc32)c1 (stereo unspecified) | inconclusive: 58.3% |
| O=C(CCc1ccccc1)Nc1ccc(F)c([N+](=O)[O-])c1 | inconclusive: 34.5% |
| Cc1nc(C(=O)Nc2ccccc2)sc1C(=O)Nc1ccccc1 | inconclusive: 56.1% |
| CCOC(=O)C1CCCN(c2nc3ccccc3nc2C(C#N)C(=O)OC(C)COC)C1 (stereo unspecified) | inconclusive: 38% |
| COc1ccc(CC(=O)NCc2ccc3c(c2)cc(C)n3C)cc1 | inconclusive: 36.9% |
| COc1ccc(OC)c(/C=C/C(=O)N2CCCc3ccccc32)c1 | inconclusive: 31.5% |
| Cc1ccc(-c2nnc(SCC(N)=O)nc2-c2ccc(C)cc2)cc1 | inconclusive: 40% |
| CC(C)(Oc1ccc(Cl)cc1)C(=O)NC1CCSC1=O (stereo unspecified) | inconclusive: 67.8% |
| O=C(Oc1ccc(Br)cc1)c1cccc(S(=O)(=O)N2CCOCC2)c1 | inconclusive: 56.4% |
| COc1ccc(CC(=O)NC(C)C2COc3ccccc3O2)cc1OC (stereo unspecified) | inconclusive: 72.1% |
| CN(C)c1ccc(/C=C/C(=O)c2cccnc2)cc1 | active: 84.9% |

| Compound | activation |
| --- | --- |
| CCc1ccc(NC(=O)c2cnccn2)cc1 | inconclusive: 58.2% |
| CN(C)c1ccc2c3c(cccc13)C(=O)N(c1ccccc1)C2=O | inactive: 1.53% |
| O=C(CCCc1cccs1)Nc1nccs1 | inactive: 8.46% |
| NC(=O)c1ccc(NC(=O)COC(=O)/C=C/c2ccc3c(c2)OCO3)cc1 | inactive: 15.3% |
| O=c1[nH]cnc2ccsc12 | inactive: -2.09% |
| COC(=O)/C(=N\Nc1ccccc1)Sc1nnc(-c2ccc(OC)cc2)n1C | inactive: -4.72% |
| CCNS(=O)(=O)c1ccc(Br)c(OC)c1 | inactive: 2.25% |
| CN(C)/C=c1\sc2c(C#N)cc(C(=O)c3ccc(Br)cc3)n2c1=O | inactive: -10.4% |
| COc1ccc([C@]23Cc4cc(OC)c(OC)cc4C(O2)c2c(cc(C)oc2=O)O3)cc1 | inactive |
| CCOc1ccc(-n2cc(-c3ccccc3)c3c(=O)[nH]cnc32)cc1 | inactive: 5.84% |
| COc1ccccc1NC(=S)NC(=O)CCc1ccccc1 | inactive: -0.225% |
| CCC1Oc2ccc(C)cc2N(CC(=O)NCCC2=CCCCC2)C1=O (stereo unspecified) | inconclusive: 36.8% |
| Cc1ccc(C(=O)NCC(=O)OCCOc2ccccc2Cl)cc1 | inconclusive: 43.4% |
| CCCCCOc1ccc(/C=C/c2c([N+](=O)[O-])c(=O)n(C)c(=O)n2C)cc1 | inactive: 4.83% |
| O=C(C1CCCCC1)N1CCCC(c2nc(-c3ccc(F)cc3)no2)C1 (stereo unspecified) | inconclusive: 33.8% |
| CC(=O)Nc1ccc(NC(=O)Nc2cccc(Cl)c2)cc1 | inconclusive: 53.6% |
| Cc1cc(C)cc(NC(=O)Cn2c(-c3ccccc3Cl)nc3ccccc32)c1 | inactive: -1.9% |
| c1ccc2[nH]c(CN3CCN(c4ncnc5c4oc4ccccc45)CC3)nc2c1 | inconclusive: 39.7% |
| CCNC(=S)N1CCN(c2cccc(C(F)(F)F)c2)CC1 | inconclusive: 52.5% |
| O=C1C2C3c4ccccc4C(c4ccccc43)C2C(=O)N1c1nc(-c2ccccc2)cs1 (stereo unspecified) | inactive: 0.14% |
| C=CCOC(=O)C1=C[C@@H](c2ccc(Br)cc2)[C@H](CCCO)[C@@H](OCC)O1 | inconclusive: 57.3% |
| OCc1nc2ccccc2n1CCCOc1ccccc1 | inconclusive: 34.2% |
| O=C(CN1CCOCC1)Nc1nc(-c2ccccc2)cs1 | active: 85.3% |

Part of the list above in another layout.
Compound	activation
Cc1cc(/C=C(\C#N)C(=O)NCc2cccs2)c(C)n1-c1ccccc1F	inconclusive: 54%
C1=C(CCNc2nnnn2-c2ccccc2)CCCC1	inconclusive: 37.8%
